Values quoted from earlier work in US20130312498A1, “CARDIOVASCULAR DISEASE RISK ASSESSMENT AND TREATMENT BY STEROL AND/OR STANOL MARKERS” (FOUNDATION FOR HEALTH IMPROVEMENT AND TECHNOLOGY, priority 2012, published 2013).

System: intestinal, biliary and plasma phytosterol levels
Conditions: 80 mg dose, statin monotherapy

increase of intestinal, biliary and plasma phytosterol levels (by up-regulating NPC1L1): particularly potent undesirable offender
Compound: CC(C)c1c(C(=O)Nc2ccccc2)c(-c2ccccc2)c(-c2ccc(F)cc2)n1CC[C@@H](O)C[C@@H](O)CC(=O)O [atorvastatin]
